The list does not hold the whole screen: it is rich in T/C values a quarter to a half above the control, in often repeated tests (any T/C) and in doses without a T/C. Further doses and runs are listed elsewhere. T/C gives the treated animals as a percentage of the vehicle group. Some entries give survivors of the animals treated and no T/C: the source holds a T/C of zero for them, seemingly a mark for toxic or unscored doses. Some survivor counts are full or nearly so, which does not show that the dose was tolerated: the source hardly ever lists a survival T/C far under the control, and the zero likely stands for such cases as well. Survivors were counted at the toxicity check, usually on the fifth day, unless a day is given; later deaths do not show. Schedules are NCI's codes, taken here to give the interval after Q, in days (D) or hours (H), and the number of doses after X. Where survival is the endpoint, the PubChem record calls one and a half times the control and up active, and a quarter to a half above the control has no call in these data; cut-offs in other NCI protocols can differ. Some T/C values are followed by the survivors on the day toxicity was checked, most often the fifth; where none is given, no animal had died by that day.
Tested on: CD2F1 mice, L1210 leukemia ip, survival T/C
Assay: NCI In Vivo Anticancer Drug Screen. Data for tumor model L1210 Leukemia (intraperitoneal) in CD2F1 (CDF1) mice
Details: higher T/C = longer survival
In short: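 Vehicle-treated tumor-bearing mice served as controls (C) for compound-treated mice (T). Reported figure is T divided by C.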

[1] = T/C endpoint: mean survival time, dose: 200.0 mg/kg/injection, schedule: Q01DX009 (ip), vehicle: saline with Tween-80
[2] = T/C endpoint: mean survival time, dose: 400.0 mg/kg/injection, schedule: Q01DX009 (ip), vehicle: saline with Tween-80

For O=C1NC(=O)C2C3C=CC(C12)C1C2C(=O)NC(=O)C2C31 (stereo not drawn), the T/C (T/C endpoint: mean survival time, dose: 25.0 mg/kg/injection, schedule: Q01DX009 (ip), vehicle: saline with Tween-80) was 132 % of control [9 of 10 alive], the survivor count [1] was 9 of 10 and the survivor count [2] was 2 of 10. For the same molecule, the T/C (T/C endpoint: median survival time, dose: 5.2 mg/kg/injection, schedule: Q03HX024 (ip), vehicle: clinical formulation) was 145 % of control, the T/C (T/C endpoint: median survival time, dose: 6.25 mg/kg/injection, schedule: Q01DX009 (ip), vehicle: saline with Tween-80) was 127 % of control and the T/C (T/C endpoint: median survival time, dose: 10.0 mg/kg/injection, schedule: Q03HX027 (ip), vehicle: saline) was 141 % of control. The survivor count (T/C endpoint: median survival time, dose: 15.6 mg/kg/injection, schedule: Q03HX008 (ip), vehicle: clinical formulation) was 5 of 10, the T/C (T/C endpoint: median survival time, dose: 25.0 mg/kg/injection, schedule: Q01DX005 (iv), vehicle: clinical formulation) was 136 % of control and the T/C (T/C endpoint: median survival time, dose: 25.0 mg/kg/injection, schedule: Q01DX009 (ip), vehicle: saline with Tween-80) was 139 % of control. The T/C (T/C endpoint: median survival time, dose: 30.0 mg/kg/injection, schedule: Q01DX009 (ip), vehicle: saline) was 149 % of control, the survivor count (T/C endpoint: median survival time, dose: 31.2 mg/kg/injection, schedule: Q03HX008 (ip), vehicle: clinical formulation) was 1 of 10 and the survivor count (T/C endpoint: median survival time, dose: 41.6 mg/kg/injection, schedule: Q03HX024 (ip), vehicle: clinical formulation) was 2 of 10. For the same molecule, the T/C (T/C endpoint: median survival time, dose: 41.6 mg/kg/injection, schedule: Q04DX003 (ip), vehicle: clinical formulation) was 130 % of control, the T/C (T/C endpoint: median survival time, dose: 50.0 mg/kg/injection, schedule: Q01DX005 (iv), vehicle: other) was 146 % of control and the T/C (T/C endpoint: median survival time, dose: 62.5 mg/kg/injection, schedule: Q01DX001 (ip), vehicle: clinical formulation) was 139 % of control. The survivor count (T/C endpoint: median survival time, dose: 62.5 mg/kg/injection, schedule: Q03HX008 (ip), vehicle: clinical formulation) was 0 of 10, the survivor count (T/C endpoint: median survival time, dose: 91.4 mg/kg/injection, schedule: Q01DX009 (ip), vehicle: water) was 0 of 6 and the survivor count (T/C endpoint: median survival time, dose: 100.0 mg/kg/injection, schedule: Q01DX005 (ip), vehicle: clinical formulation) was 3 of 10. The survivor count (T/C endpoint: median survival time, dose: 100.0 mg/kg/injection, schedule: Q01DX005 (iv), vehicle: clinical formulation) was 1 of 10, the survivor count (T/C endpoint: median survival time, dose: 100.0 mg/kg/injection, schedule: Q01DX009 (ip), vehicle: clinical formulation) was 5 of 10 and the T/C (T/C endpoint: median survival time, dose: 100.0 mg/kg/injection, schedule: Q01DX009 (ip), vehicle: saline with Tween-80) was 135 % of control. The survivor count (T/C endpoint: median survival time, dose: 125.0 mg/kg/injection, schedule: Q01DX001 (iv), vehicle: clinical formulation) was 1 of 10, the survivor count (T/C endpoint: median survival time, dose: 125.0 mg/kg/injection, schedule: Q03HX008 (ip), vehicle: clinical formulation) was 0 of 10 and the survivor count (T/C endpoint: median survival time, dose: 138.9 mg/kg/injection, schedule: Q01DX009 (ip), vehicle: clinical formulation) was 0 of 6. For the same molecule, the survivor count (T/C endpoint: median survival time, dose: 138.9 mg/kg/injection, schedule: Q01DX009 (ip), vehicle: saline) was 2 of 6, the survivor count (T/C endpoint: median survival time, dose: 138.9 mg/kg/injection, schedule: Q01DX009 (ip), vehicle: water) was 1 of 6 and the survivor count (T/C endpoint: median survival time, dose: 166.6 mg/kg/injection, schedule: Q04DX003 (ip), vehicle: clinical formulation) was 0 of 10. The survivor count (T/C endpoint: median survival time, dose: 200.0 mg/kg/injection, schedule: Q01DX005 (ip), vehicle: clinical formulation) was 0 of 10, the survivor count (T/C endpoint: median survival time, dose: 200.0 mg/kg/injection, schedule: Q01DX005 (ip), vehicle: other) was 0 of 10 and the survivor count (T/C endpoint: median survival time, dose: 200.0 mg/kg/injection, schedule: Q01DX005 (iv), vehicle: clinical formulation) was 0 of 10. For the same molecule, the survivor count (T/C endpoint: median survival time, dose: 200.0 mg/kg/injection, schedule: Q01DX005 (iv), vehicle: other) was 0 of 10, the survivor count (T/C endpoint: median survival time, dose: 200.0 mg/kg/injection, schedule: Q01DX009 (ip), vehicle: clinical formulation) was 1 of 10 and the survivor count (T/C endpoint: median survival time, dose: 200.0 mg/kg/injection, schedule: Q01DX009 (ip), vehicle: saline with Tween-80) was 4 of 10. The T/C (T/C endpoint: median survival time, dose: 200.0 mg/kg/injection, schedule: Q01DX009 (oral), vehicle: other) was 131 % of control, the T/C (T/C endpoint: median survival time, dose: 222.2 mg/kg/injection, schedule: Q01DX009 (oral), vehicle: clinical formulation) was 134 % of control and the survivor count (T/C endpoint: median survival time, dose: 250.0 mg/kg/injection, schedule: Q01DX001 (ip), vehicle: clinical formulation) was 6 of 10. The survivor count (T/C endpoint: median survival time, dose: 250.0 mg/kg/injection, schedule: Q01DX001 (iv), vehicle: clinical formulation) was 0 of 10, the survivor count (T/C endpoint: median survival time, dose: 333.3 mg/kg/injection, schedule: Q04DX003 (ip), vehicle: clinical formulation) was 0 of 10 and the survivor count (T/C endpoint: median survival time, dose: 400.0 mg/kg/injection, schedule: Q01DX005 (iv), vehicle: clinical formulation) was 0 of 10. For the same molecule, the T/C (T/C endpoint: median survival time, dose: 400.0 mg/kg/injection, schedule: Q01DX009 (oral), vehicle: other) was 132 % of control, the survivor count (T/C endpoint: median survival time, dose: 500.0 mg/kg/injection, schedule: Q01DX001 (ip), vehicle: clinical formulation) was 0 of 10 and the survivor count (T/C endpoint: median survival time, dose: 500.0 mg/kg/injection, schedule: Q01DX001 (iv), vehicle: clinical formulation) was 0 of 10. The survivor count (T/C endpoint: median survival time, dose: 1000.0 mg/kg/injection, schedule: Q01DX001 (ip), vehicle: clinical formulation) was 0 of 10 and the survivor count (T/C endpoint: median survival time, dose: 1000.0 mg/kg/injection, schedule: Q01DX001 (iv), vehicle: clinical formulation) was 0 of 10.

In the case of COc1ccc(Nc2ccnc3cc(Cl)ccc23)cc1CN(CCCl)CCCl, the survivor count (T/C endpoint: mean survival time, dose: 12.5 mg/kg/injection, schedule: Q01DX009 (ip), vehicle: saline) is reported as 5 of 6.

O=C(O)c1nc2ccccc2c(=O)[nH]1 was tested, and the survivor count (T/C endpoint: mean survival time, dose: 400.0 mg/kg/injection, schedule: Q01DX001 (ip), vehicle: saline with Tween-80) was 2 of 6.

In the case of CN(C)CCC=C1c2ccccc2-c2ccccc21, the survivor count (T/C endpoint: mean survival time, dose: 150.0 mg/kg/injection, schedule: Q01DX009 (ip), vehicle: saline) is reported as 0 of 6, the survivor count (T/C endpoint: mean survival time, dose: 225.0 mg/kg/injection, schedule: Q01DX009 (ip), vehicle: saline) is reported as 0 of 6 and the survivor count (T/C endpoint: mean survival time, dose: 335.0 mg/kg/injection, schedule: Q01DX009 (ip), vehicle: saline) is reported as 0 of 6.

For C/C(=N\NC(N)=O)C(F)(F)F, the survivor count (T/C endpoint: mean survival time, dose: 400.0 mg/kg/injection, schedule: Q04DX003 (ip), vehicle: saline with Tween-80) was 3 of 6.

CC1CC(C)(C)[N+]2=C(CCCC2)O1 (stereo not drawn) was tested, and the survivor count (T/C endpoint: mean survival time, dose: 100.0 mg/kg/injection, schedule: Q01DX009 (ip), vehicle: saline with Tween-80) was 0 of 6, the survivor count [1] was 0 of 6 and the survivor count [2] was 0 of 6.

From PubChem BioAssay AID256 (DTP/NCI, 2004)
